Assay results from PubChem BioAssay AID2517 (National Center for Advancing Translational Sciences (NCATS), 2010).
In all, about 350,000 compounds went through this assay and about 1,200 (0.34%) were called active. This list was built around the results that the source calls inconclusive (neither active nor inactive); the mix of calls is not that of the screen. Calls come from the whole dose curve; as a rule, active = well fitted inhibition curve with a large enough effect; inconclusive = small, poorly fitted or top-dose-only effect; inactive = no such curve, though single readings can be large or run the other way. A potency beside an inconclusive call is a rough fit, not a confirmed value.
Note: nearly all actives have a fitted effect of over 55% in size.
Potency is the fitted concentration of half-maximal effect.
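Throughout, for activity change, negative = inhibition: plate controls were vehicle for no effect and reference inhibitor for full effect.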

Protein sequences, listed by entry. Tags and fused reporters are not part of them.
UniProt P27695, whole entry, looked up: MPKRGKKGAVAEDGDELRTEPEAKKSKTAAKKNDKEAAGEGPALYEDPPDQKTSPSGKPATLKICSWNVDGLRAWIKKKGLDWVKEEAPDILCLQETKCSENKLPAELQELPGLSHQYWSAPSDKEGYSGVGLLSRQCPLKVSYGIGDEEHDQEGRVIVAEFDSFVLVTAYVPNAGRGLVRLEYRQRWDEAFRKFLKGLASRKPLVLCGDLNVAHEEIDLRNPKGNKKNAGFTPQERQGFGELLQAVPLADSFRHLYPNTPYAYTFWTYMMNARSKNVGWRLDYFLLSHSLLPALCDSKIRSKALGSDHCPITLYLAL

Each compound was assayed against DNA repair nuclease/redox regulator APEX1 (Homo sapiens) (UniProt P27695) (assay: qHTS Assay for Inhibitors of the Human Apurinic/apyrimidinic Endonuclease 1 (APE1)). Settings: recombinant APE1, TAMRA/BHQ-2 abasic DNA cleavage fluorescence; activity change, negative = inhibition: at 65.8 µM (top of the series).
Procedure, shortened: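 0.75 nM APE1 + cpd, 15 min RT; start w/ 50 nM TAMRA/BHQ-2 THF-abasic dsDNA; kinetic fluor 525/598 nm ×3 reads @60 s; Δ(read3−read1); normalized to DMSO and NSC13755 control wells.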
O=C(O)c1cccc(-n2cccc2/C=C2/NC(=O)N(Cc3ccccc3F)C2=O)c1 was tested, and the Potency was active: 12.6 µM. For N=C1SCC(=O)N1c1ncc(Cc2ccccc2Cl)s1, the Potency was inconclusive: 0.0891 µM [inhibitor, full curve, poor fit]. In the case of COCCCNC(=O)c1cc(S(=O)(=O)N2CCOCC2)ccc1SCc1cccc(OC)c1OC, the Potency was inconclusive: 17.8 µM [inhibitor, partial curve, poor fit]. With CCCOC(=O)c1c(NC(=O)C2CCCO2)sc(C(=O)OC)c1C (stereo unspecified) the Potency was inconclusive: 0.141 µM [inhibitor, full curve, poor fit]. For COc1cc(C)ccc1OCCOCCOc1cc(C)c(C)cc1Br, the “activity change, negative = inhibition” value was inactive: 4.22%. In the case of Cc1nn(CCC(=O)O)c2nc(-c3cccnc3)cc(C(F)(F)F)c12, the Potency was inconclusive: 44.7 µM [inhibitor, partial curve]. In the case of COc1cccc(C2NC(C(=O)O)CCC2C)c1 (stereo unspecified), the activity change, negative = inhibition was inactive: -9.67% [at 12.4 µM]. With CC1CCOC(c2coc3ccccc3c2=O)O1 (stereo unspecified) the “activity change, negative = inhibition” value was inactive: 14.6%. For CC(NC(=O)/C(C#N)=C/c1ccco1)c1ccccc1 (stereo unspecified), the Potency was inconclusive: 0.251 µM [inhibitor, full curve, poor fit]. In the case of Cc1noc(C)c1S(=O)(=O)N(CC(=O)Nc1ccc2c(c1)OCCO2)c1ccc(C(C)C)cc1, the Potency was inconclusive: 44.7 µM [inhibitor, single point]. For COc1ccc2nc3cc(Cl)ccc3c(NCCCN3CCN(CCCNc4c5ccc(Cl)cc5nc5ccc(OC)cc45)CC3)c2c1, the Potency was inconclusive: 20 µM [inhibitor, single point]. For O=C(O)c1ccc2c(c1)C1C=CCC1C(c1ccncc1)N2 (stereo unspecified), the Potency was inconclusive: 15.8 µM [inhibitor, partial curve]. In the case of COc1cc(/C=C2/C(=O)NN(c3cccc(C)c3)C2=O)cc([N+](=O)[O-])c1O, the Potency was inconclusive: 20 µM [inhibitor, single point]. O=C(O)CC(Sc1n[nH]c(=S)s1)C(=O)O (stereo unspecified) was tested, and the Potency was inconclusive: 3.55 µM [inhibitor, single point]. In the case of CC(C)(C)OC(=O)C[C@H]1C/C=C\C[C@H](CC(=O)N(CCO)Cc2ccccc2)C(=O)N[C@@H](c2ccccc2)COC1=O, the Potency was inconclusive: 23.8 µM [inhibitor, single point]. For CCCCCCCNC1=CC(=O)CC(c2ccco2)C1 (stereo unspecified), the Potency was inconclusive: 28.2 µM [inhibitor, single point]. In the case of COC1=CC(=O)CC(C)C12Oc1cc(OC)cc(OC)c1C2=O (stereo unspecified), the Potency was inconclusive: 44.7 µM [inhibitor, single point]. With CSc1cccc(NC(=O)C2CCN(S(=O)(=O)c3ccc(F)cc3)CC2)c1 the Potency was inconclusive: 25.1 µM [inhibitor, single point]. For CCC(=O)OCCNc1cc(Sc2nc3ccccc3[nH]2)c2nonc2c1[N+](=O)[O-], the Potency was inconclusive: 44.7 µM [inhibitor, single point]. With CC(C)=CCC/C(C)=C/Cc1c(O)ccc(C(=O)/C=C/c2ccc(O)cc2)c1O the Potency was inconclusive: 3.98 µM [inhibitor, single point]. O=C(O)COc1cnc2ccccc2n1 was tested, and the Potency was inconclusive: 0.794 µM [inhibitor, full curve]. N=c1c(S(=O)(=O)c2ccc(Cl)cc2)cc2c(=O)n3ccccc3nc2n1Cc1ccco1 was tested, and the “activity change, negative = inhibition” value was inactive: -7.02%. In the case of COc1cc(/C=N\NC(=O)CNC(=O)C(c2ccccc2)c2ccccc2)ccc1O, the Potency was inconclusive: 3.55 µM [inhibitor, single point]. For CC(=O)OC[C@H]1O[C@H](CCO/N=C(\C)CCN2CCCc3nc(C)c(C)cc32)C=C[C@@H]1OC(C)=O, the Potency was inconclusive: 2.82 µM [inhibitor, partial curve]. With ON=C1CCCCC1 the Potency was inconclusive: 2.24 µM [inhibitor, full curve]. CCC1=NN2C(=N)/C(=C\c3ccc(SCc4ccco4)o3)C(=O)N=C2S1 was tested, and the Potency was inconclusive: 20 µM [inhibitor, partial curve]. With COc1ccc(C(=O)c2sc(Nc3ccccc3)nc2N)cc1OC the “activity change, negative = inhibition” value was inactive: -2.37%. In the case of O=C(NCc1n[nH]c(=S)n1-c1ccc(F)cc1)c1ccc(S(=O)(=O)N2CCOCC2)cc1, the Potency was inconclusive: 35.5 µM [inhibitor, single point]. In the case of CCCC12CN(C(=O)c3ccc([N+](=O)[O-])cc3)CC(C)(CN(C(=O)c3ccc([N+](=O)[O-])cc3)C1)C2=O, the Potency was inconclusive: 44.7 µM [inhibitor, single point]. In the case of CC1(C)CC(=O)C=C(NCc2ccccc2)C1, the Potency was inconclusive: 0.002 µM [inhibitor, full curve, poor fit]. With O=C(O)COc1ccc(/C=N/NC(=O)c2ccc(-c3csc(Nc4ccc(Cl)cc4)n3)cc2)cc1 the Potency was active: 3.55 µM. For CCCCCCCCCCCCCCCC(=O)OCC(NC(=O)C(Cl)Cl)C(O)c1ccc([N+](=O)[O-])cc1 (stereo unspecified), the Potency was inconclusive: 28.2 µM [inhibitor, single point]. In the case of CCOC(=O)c1c(C)nc2c(c1-c1ccc(OC)c(OC)c1)C(=O)c1ccccc1-2, the Potency was inconclusive: 22.4 µM [inhibitor, single point]. With COCCNc1nc2nonc2nc1N(C)Cc1cccc2cnccc12 the Potency was inconclusive: 0.158 µM [inhibitor, full curve]. CCOC(=O)C(=NC1CCS(=O)(=O)C1)NNc1ccccc1Cl (stereo unspecified) was tested, and the Potency was inconclusive: 44.7 µM [inhibitor, single point]. In the case of C=CCOc1ccccc1/C=c1\sc2nc(=O)c(C)nn2c1=O, the Potency was inconclusive: 39.8 µM [inhibitor, single point]. COc1ccc(C(=O)Nc2nc(C)cc(C)n2)cc1 was tested, and the “activity change, negative = inhibition” value was inactive: -6.76%. For N#Cc1ccc2ccn(CC(=O)N3CCCc4ccccc43)c2c1, the Potency was inconclusive: 14.1 µM [inhibitor, partial curve, poor fit]. With Cc1ccccc1-c1nc(S(=O)(=O)c2ccc(Cl)cc2)c(NCCN2CCOCC2)o1 the “activity change, negative = inhibition” value was inactive: -0.759%. With Cc1nnc(SCC2=C(C(=O)O)N3C(=O)C(NC(=O)c4cc(F)c(F)cc4Cl)C3SC2)s1 (stereo unspecified) the “activity change, negative = inhibition” value was inactive: -5.09%. COc1cccc(-c2nc(Nc3ccncc3)c3ccccc3n2)c1 was tested, and the Potency was inconclusive: 35.5 µM [inhibitor, partial curve].
